According to US12038432B2, “Organoids related to immunotherapy and methods of preparing and using the same” (Wake Forest University Health Sciences, priority 2018, dated 2024):
For at least one compound, name, drawing or mass did not settle the structure.

Assays:
melanoma = experiment: Clinical response of melanoma patients to treatment; assay type: in vivo, human
[1] = tested on: 3D patient-specific mixed melanoma/node organoids; experiment: Personalized immunotherapy screening on mixed melanoma/node organoids (live/dead staining and metabolism assays); assay type: cell-based, human; conditions: organoids of BRAF wild patient with melanoma harboring a MEK pathway; prior to NGS
Source text: Methods: Surgically obtained matched melanoma and lymph node biospecimens from the same patient were transferred to the laboratory, washed with saline, antibiotic, and red blood cell lysis buffer. Biospecimens were dissociated, and incorporated into an ECM-based hydrogel system and biofabricated into 3D patient-specific mixed melanoma/node organoids. Cells were not sorted for tumor, as to preserve tumor heterogeneity, including stroma and immune cell components. […] Quantification of live/dead staining and metabolism assays, recorded relative drug efficacy in killing melanoma cells for a particular patient. Light microscopy, IHC and next generation sequencing (NGS) were used to compare tumor melanoma cells with organoid melanoma cells.

CC(=O)Nc1cccc(-n2c(=O)n(C3CC3)c(=O)c3c(Nc4ccc(I)cc4F)n(C)c(=O)c(C)c32)c1 [trametinib]
patient response to treatment (melanoma; melanoma patient (Non-Responder), BRAF wild, MEK mutation): began responding successfully almost immediately
patient clinical response (melanoma; stage III and IV melanoma patients of Example 7): clinical response
organoid response [1]: Response
